Assay results from PMC10092763.
Results are given in words; binding and its absence hold for the method and conditions named. In cells and extracts the contact can be indirect. Here binding means that the protein was enriched with, or labelled near, the bait; the list need not be complete. Tags and fused reporters may be left off the sequences shown. One block for each molecule: values may come before it.

Protein sequences, listed by entry. Tags and fused reporters are not part of them.
UniProt Q02962: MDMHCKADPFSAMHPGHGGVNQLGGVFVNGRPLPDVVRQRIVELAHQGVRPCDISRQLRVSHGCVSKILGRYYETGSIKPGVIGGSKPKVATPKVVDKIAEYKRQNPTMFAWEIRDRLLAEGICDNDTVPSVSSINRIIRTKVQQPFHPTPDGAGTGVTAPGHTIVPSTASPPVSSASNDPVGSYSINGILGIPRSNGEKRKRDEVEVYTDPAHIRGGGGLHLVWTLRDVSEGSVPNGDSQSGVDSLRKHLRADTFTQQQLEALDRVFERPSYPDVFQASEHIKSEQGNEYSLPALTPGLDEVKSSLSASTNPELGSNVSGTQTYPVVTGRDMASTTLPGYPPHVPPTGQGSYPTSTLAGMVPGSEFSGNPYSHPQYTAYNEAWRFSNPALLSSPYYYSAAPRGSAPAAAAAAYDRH
UniProt P42568: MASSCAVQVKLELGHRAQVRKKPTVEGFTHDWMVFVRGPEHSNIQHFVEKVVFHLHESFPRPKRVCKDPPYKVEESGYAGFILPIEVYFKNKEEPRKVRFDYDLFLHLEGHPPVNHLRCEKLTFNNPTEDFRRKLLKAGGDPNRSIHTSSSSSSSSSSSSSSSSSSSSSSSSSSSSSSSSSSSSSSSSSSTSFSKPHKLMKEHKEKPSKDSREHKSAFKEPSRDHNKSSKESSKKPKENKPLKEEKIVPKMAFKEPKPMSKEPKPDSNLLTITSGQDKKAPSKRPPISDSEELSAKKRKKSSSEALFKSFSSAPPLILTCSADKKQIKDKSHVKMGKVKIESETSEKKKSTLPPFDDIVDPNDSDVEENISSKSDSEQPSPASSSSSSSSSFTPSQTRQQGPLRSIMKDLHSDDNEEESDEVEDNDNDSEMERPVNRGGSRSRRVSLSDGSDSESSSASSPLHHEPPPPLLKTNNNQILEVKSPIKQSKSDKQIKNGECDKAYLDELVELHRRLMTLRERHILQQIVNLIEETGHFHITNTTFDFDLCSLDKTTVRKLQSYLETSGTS
UniProt P50750: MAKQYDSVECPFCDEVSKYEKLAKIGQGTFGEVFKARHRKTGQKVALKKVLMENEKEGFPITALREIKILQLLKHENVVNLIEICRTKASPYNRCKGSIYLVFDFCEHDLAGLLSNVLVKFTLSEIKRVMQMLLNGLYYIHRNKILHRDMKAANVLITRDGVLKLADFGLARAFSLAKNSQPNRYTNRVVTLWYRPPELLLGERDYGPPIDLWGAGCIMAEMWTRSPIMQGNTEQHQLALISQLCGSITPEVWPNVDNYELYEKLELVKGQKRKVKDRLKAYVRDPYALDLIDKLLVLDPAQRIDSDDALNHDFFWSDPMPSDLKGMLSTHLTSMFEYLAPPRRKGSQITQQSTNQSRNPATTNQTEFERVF

Biological target: T1, FLAG-tagged AFF4 (human) (UniProt Q9UHB7)
T1 sequence: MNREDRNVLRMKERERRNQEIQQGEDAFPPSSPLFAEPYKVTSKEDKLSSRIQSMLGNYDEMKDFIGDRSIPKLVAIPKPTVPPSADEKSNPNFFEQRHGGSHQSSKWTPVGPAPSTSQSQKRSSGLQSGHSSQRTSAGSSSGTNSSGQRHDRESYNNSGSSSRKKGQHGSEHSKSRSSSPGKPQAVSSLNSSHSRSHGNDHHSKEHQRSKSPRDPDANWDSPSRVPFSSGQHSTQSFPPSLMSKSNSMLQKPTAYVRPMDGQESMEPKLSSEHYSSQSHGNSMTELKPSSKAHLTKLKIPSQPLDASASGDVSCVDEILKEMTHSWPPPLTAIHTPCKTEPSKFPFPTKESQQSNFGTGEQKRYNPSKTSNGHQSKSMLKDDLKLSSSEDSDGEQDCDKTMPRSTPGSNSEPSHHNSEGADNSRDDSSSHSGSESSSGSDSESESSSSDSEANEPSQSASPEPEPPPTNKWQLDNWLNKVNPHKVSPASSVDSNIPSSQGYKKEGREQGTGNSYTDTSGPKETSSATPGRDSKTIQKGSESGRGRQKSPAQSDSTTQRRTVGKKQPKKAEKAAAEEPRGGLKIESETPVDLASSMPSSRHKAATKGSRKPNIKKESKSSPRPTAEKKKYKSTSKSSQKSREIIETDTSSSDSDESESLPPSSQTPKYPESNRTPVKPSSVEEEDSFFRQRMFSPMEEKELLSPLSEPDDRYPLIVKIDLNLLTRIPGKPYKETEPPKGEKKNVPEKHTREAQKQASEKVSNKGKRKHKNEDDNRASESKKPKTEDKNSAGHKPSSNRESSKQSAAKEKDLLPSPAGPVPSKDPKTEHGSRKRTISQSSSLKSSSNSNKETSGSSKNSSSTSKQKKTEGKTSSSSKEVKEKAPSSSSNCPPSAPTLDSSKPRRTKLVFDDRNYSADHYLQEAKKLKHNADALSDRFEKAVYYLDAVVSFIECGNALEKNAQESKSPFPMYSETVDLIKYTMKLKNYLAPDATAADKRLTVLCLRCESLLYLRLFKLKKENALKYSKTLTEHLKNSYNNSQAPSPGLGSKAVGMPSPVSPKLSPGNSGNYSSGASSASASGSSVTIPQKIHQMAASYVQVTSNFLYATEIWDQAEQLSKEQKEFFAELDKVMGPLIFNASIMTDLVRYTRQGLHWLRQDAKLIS
Experiment: affinity purification with mass spectrometry; FLAG-AFF4 immunoprecipitated from transfected PANC-1 or BxPC-3 cells, FLAG/pCDH empty vector as control; associated proteins identified by LC-MS/MS

- binding: binds
Molecule: PAX2 (from UniProt Q02962 1-417)

- binding: binds
Molecule: MLLT3 (from UniProt P42568 1-568)

The next lines start with the molecule.

Molecule: CDK9 (from UniProt P50750 1-372) (enzyme)
- binding: binds

B1: MLLT1 (protein, UniProt Q03111 1-559)
chain: MDNQCTVQVRLELGHRAQLRKKPTTEGFTHDWMVFVRGPEQCDIQHFVEKVVFWLHDSFPKPRRVCKEPPYKVEESGYAGFIMPIEVHFKNKEEPRKVCFTYDLFLNLEGNPPVNHLRCEKLTFNNPTTEFRYKLLRAGGVMVMPEGADTVSRPSPDYPMLPTIPLSAFSDPKKTKPSHGSKDANKESSKTSKPHKVTKEHRERPRKDSESKSSSKELEREQAKSSKDTSRKLGEGRLPKEEKAPPPKAAFKEPKMALKETKLESTSPKGGPPPPPPPPPRASSKRPATADSPKPSAKKQKKSSSKGSRSAPGTSPRTSSSSSFSDKKPAKDKSSTRGEKVKAESEPREAKKALEVEESNSEDEASFKSESAQSSPSNSSSSSDSSSDSDFEPSQNHSQGPLRSMVEDLQSEESDEDDSSSGEEAAGKTNPGRDSRLSFSDSESDNSADSSLPSREPPPPQKPPPPNSKVSGRRSPESCSKPEKILKKGTYDKAYTDELVELHRRLMALRERNVLQQIVNLIEETGHFNVTNTTFDFDLFSLDETTVRKLQSCLEAVAT
- binding: binds
